Measured values published in article doi:10.1101/2024.11.08.622598.
No constants are given. Whether binding was seen depends on the method and setting. Binding seen in cells or lysates may run through a third protein. Some entries that bind do so weakly or less than the wild type.

By UniProt entry, the sequences of proteins in these tests, tags left out.
UniProt Q96BN8: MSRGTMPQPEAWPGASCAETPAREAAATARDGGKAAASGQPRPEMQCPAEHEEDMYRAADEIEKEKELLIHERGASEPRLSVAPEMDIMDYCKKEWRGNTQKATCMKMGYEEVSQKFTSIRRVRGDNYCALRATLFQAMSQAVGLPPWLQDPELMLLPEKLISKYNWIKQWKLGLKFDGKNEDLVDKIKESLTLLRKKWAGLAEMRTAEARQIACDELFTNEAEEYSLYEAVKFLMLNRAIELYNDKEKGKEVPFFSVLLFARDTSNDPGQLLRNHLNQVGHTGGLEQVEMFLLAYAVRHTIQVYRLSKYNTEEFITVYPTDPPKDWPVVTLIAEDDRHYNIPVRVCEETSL
UniProt Q96EP0: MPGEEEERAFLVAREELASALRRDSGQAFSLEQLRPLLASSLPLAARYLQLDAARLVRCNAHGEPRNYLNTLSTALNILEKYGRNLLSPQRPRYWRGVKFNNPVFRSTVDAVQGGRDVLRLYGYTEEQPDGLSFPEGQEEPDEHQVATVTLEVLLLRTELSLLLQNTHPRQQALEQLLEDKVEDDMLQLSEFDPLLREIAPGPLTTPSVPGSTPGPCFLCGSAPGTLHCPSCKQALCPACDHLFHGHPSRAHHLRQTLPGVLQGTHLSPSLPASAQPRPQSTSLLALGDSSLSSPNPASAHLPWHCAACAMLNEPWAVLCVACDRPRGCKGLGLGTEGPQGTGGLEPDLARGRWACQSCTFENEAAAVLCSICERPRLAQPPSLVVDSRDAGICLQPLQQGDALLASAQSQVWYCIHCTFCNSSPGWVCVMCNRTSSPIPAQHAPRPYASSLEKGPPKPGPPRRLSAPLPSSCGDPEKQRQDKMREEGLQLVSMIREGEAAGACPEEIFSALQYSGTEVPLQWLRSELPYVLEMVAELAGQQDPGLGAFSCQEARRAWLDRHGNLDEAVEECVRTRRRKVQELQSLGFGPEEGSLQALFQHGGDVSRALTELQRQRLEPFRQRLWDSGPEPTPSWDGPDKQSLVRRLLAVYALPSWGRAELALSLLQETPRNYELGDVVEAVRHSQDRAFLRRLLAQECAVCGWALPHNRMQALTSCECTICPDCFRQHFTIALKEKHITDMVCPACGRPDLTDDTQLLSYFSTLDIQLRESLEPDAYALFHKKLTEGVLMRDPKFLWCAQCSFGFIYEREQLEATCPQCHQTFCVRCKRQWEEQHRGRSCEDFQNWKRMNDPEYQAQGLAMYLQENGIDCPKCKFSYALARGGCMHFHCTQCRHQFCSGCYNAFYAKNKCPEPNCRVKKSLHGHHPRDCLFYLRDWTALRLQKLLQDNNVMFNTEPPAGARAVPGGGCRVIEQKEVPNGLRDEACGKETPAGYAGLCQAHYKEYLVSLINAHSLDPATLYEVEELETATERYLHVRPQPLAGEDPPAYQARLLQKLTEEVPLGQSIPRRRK
UniProt P54646: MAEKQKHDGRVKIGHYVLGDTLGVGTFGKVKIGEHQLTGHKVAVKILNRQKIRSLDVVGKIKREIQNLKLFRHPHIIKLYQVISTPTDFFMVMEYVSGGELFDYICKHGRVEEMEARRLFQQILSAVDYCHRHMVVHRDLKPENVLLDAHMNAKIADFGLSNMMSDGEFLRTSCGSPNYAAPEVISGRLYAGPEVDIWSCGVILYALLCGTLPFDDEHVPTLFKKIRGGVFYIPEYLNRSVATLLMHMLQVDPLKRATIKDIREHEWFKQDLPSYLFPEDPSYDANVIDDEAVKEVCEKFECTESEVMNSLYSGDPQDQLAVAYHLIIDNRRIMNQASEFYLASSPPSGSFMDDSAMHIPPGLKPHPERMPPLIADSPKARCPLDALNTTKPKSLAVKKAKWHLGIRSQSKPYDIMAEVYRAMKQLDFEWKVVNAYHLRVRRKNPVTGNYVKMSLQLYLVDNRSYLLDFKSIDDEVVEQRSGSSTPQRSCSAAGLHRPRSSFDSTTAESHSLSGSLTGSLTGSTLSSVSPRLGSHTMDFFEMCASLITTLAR
UniProt P54619: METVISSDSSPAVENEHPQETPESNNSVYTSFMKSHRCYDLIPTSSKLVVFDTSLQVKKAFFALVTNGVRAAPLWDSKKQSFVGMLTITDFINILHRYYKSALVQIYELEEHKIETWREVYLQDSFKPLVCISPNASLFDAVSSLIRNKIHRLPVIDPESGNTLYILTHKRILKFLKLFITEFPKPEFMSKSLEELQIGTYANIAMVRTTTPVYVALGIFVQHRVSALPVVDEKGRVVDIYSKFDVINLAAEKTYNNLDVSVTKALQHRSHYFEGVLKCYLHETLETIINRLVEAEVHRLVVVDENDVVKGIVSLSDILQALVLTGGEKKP
UniProt Q9BYM8: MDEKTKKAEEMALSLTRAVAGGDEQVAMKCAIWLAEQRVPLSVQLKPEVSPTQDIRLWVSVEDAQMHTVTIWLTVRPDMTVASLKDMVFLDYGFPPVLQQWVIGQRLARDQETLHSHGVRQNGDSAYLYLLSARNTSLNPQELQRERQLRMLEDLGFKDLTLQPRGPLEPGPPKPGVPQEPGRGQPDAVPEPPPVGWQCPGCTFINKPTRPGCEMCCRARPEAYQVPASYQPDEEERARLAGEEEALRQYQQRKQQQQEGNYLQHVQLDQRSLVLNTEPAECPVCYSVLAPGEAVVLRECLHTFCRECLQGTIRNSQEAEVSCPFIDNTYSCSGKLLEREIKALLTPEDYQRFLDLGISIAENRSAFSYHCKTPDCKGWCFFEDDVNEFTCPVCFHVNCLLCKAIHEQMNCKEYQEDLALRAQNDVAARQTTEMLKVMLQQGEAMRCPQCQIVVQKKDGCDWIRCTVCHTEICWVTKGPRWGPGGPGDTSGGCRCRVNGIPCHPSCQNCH

Assays:
[1] = target: 2xHA-2xStrep-OTULIN, full-length wild type (UniProt Q96BN8); test: pull-down
[2] = target: 2xHA-2xStrep-HOIP (co-expressed with V5-HOIL1 and V5-SHARPIN; the precipitate is called LUBAC) (UniProt Q96EP0); test: pull-down
[3] = target: 2xFLAG-2xStrep-AMPKα2 (UniProt P54646); test: co-IP

| binding [1] | binding [2] | binding [3] | Substance |
| --- | --- | --- | --- |
| binds | binds |  | AMPK γ1 subunit (PRKAG1), endogenous (from UniProt P54619 1-331) |
|  |  | binds | HOIL-1, endogenous (from UniProt Q9BYM8 1-510) (enzyme) |
|  |  | binds | HOIP (RNF31), endogenous (from UniProt Q96EP0 1-1072) (enzyme) |
|  |  | binds | OTULIN, endogenous (from UniProt Q96BN8 1-352) (enzyme) |
